# Results taken from PubChem BioAssay (NCATS).
# The chains behind the UniProt entries cited, without tags or fusion partners. Where a name states a change or a piece, a line headed by the entry shows the natural chain unless it says otherwise.
# UniProt A8B2U2: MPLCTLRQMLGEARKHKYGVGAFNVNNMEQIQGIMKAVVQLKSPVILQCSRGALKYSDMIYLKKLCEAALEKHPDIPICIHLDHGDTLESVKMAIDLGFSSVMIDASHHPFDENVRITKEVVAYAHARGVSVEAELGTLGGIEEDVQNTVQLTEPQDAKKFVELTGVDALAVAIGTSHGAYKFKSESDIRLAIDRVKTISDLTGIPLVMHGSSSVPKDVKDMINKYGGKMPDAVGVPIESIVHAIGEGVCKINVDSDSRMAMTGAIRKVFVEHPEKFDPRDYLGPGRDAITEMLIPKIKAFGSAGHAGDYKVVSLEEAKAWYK
# This list was built around the results that the source calls inconclusive (neither active nor inactive); the mix of calls is not that of the screen. A potency beside an inconclusive call is a rough fit, not a confirmed value. Calls of active or inactive are those of the source. Calls follow the shape of the dose curve; as a rule, active = well fitted curve in the direction sought with a large enough effect; inconclusive = small, poorly fitted or top-dose-only effect, or another doubt; inactive = no such curve, though single readings can be large; an effect the other way counts as inactive or inconclusive.
# Tested on: not listed separately
# Experiment: qHTS Assay for Inhibitors of Fructose-1,6-bisphosphate Aldolase from Giardia Lamblia: Giardia lamblia growth inhibition (AID 2785); also: nearly all actives have a fitted effect of over 70% in size; also: potency is read from the fitted curve at half-maximal effect
# Conditions: Giardia lamblia trophozoite growth inhibition; activity change, negative = inhibition: at 57.5 µM (top of the series)
# In short: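 Whole-parasite growth test: Giardia WB trophozoites in TYI-S-33 (pH 7.0), 100 per well, incubated 48 h at 37C with compound. ATP content was read by ATPlite luminescence.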
# % is scaled to controls: 0 for no effect and ±100 for the full control effect.
SMILES,"activity change, negative = inhibition",Potency
COc1cc(N=c2ssnc2Cl)cc(OC)c1,inactive: -3.28% [at 10.4 µM],
S=c1[nH]c2cc(Cl)c3cccnc3c2o1,,inactive
O=C(Nc1nnc(S(=O)(=O)N2CCOCC2)s1)c1ccc(F)cc1,,"inconclusive: 1.78 µM [inhibitor, partial curve, poor fit]"
COc1cccc(NC2=C(C#N)C(=O)NC(c3cccc(OC)c3O)S2)c1 (stereo not given),,"inconclusive: 25.1 µM [inhibitor, partial curve]"
COc1cc(C(=O)O/N=C2/C=C(C)C(=O)C=C2C)cc(OC)c1OC,inactive: 5.29% [at 10.4 µM],

# Molecular target: Fructose-bisphosphate aldolase (Giardia intestinalis (strain ATCC 50803 / WB clone C6)) (UniProt A8B2U2)
# Experiment: qHTS Assay for Inhibitors of Fructose-1,6-bisphosphate Aldolase from Giardia Lamblia: Primary screen confirmation (AID 2787);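 as to activity change, negative = inhibition: aldolase product measured through coupled diaphorase step turning resazurin into fluorescent resorufin; nearly all actives have a fitted effect of over 45% in size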
# Conditions: purified Giardia aldolase enzyme activity; series mostly up to 57.5 µM
# In short: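 FBPA (40 nM in enzyme reagent, with 30 uM ZnCl2) was preincubated 10 min at RT with compound up to 57.5 uM final. Substrate plus coupled detection system was then added, and fluorescence (525/598 nm) was read after 20 min at RT.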
row,SMILES,Potency
1,CN(C)c1ccc(NC2=C(Cl)C(=O)c3ccccc3C2=O)cc1,"inconclusive: 3.26 µM [inhibitor, full curve]"
2,CNc1nc(-c2ccccc2)[n+](-c2ccc(C)cc2)s1,"inconclusive: 31.6 µM [inhibitor, single point]"
3,Cc1ccc(S(=O)(=O)/N=C2/C=C(Sc3ncn[nH]3)C(=O)c3ccccc32)cc1,active: 2.51 µM
4,O=C(NCCO)c1cc2ccccc2cc1O,"inconclusive: 12.6 µM [inhibitor, partial curve]"
5,COc1ccc(C2CC(=O)N3CN(c4ccccc4F)CSC3=C2C#N)cc1OC (stereo not given),"inconclusive: 17.8 µM [inhibitor, partial curve]"
6,CN1CCN(C(=S)c2ccc(N(C)C)cc2)CC1,inactive
7,COc1ccccc1NS(=O)(=O)c1cc(NC(=O)c2sccc2C)ccc1N1CCCC1,"inconclusive: 31.6 µM [inhibitor, single point]"
8,CCn1c(O)c(C#N)c(C)cc1=O,"inconclusive: 11.2 µM [inhibitor, partial curve]"
9,CCC(C)c1ccc(NC(=O)CN(C)CC(=O)Nc2cccc(OC)c2)cc1 (stereo not given),inactive
10,O=S(=O)(NNc1nccc(C(F)(F)F)n1)c1cccc(Cl)c1Cl,"inconclusive: 22.4 µM [inhibitor, partial curve]"
11,COc1ccc(CN2CCN(C(C)C(=O)N(C)Cc3cccc(F)c3)CC2)cc1OC (stereo not given),inactive
12,COc1cc(/C=C(\C#N)C(=O)c2c[nH]c3ccccc23)cc(OC)c1O,active: 2 µM
13,CCc1nnc(N/N=C/c2ccc(N3CCC(C)CC3)c([N+](=O)[O-])c2)n1N,"inconclusive: 22.4 µM [inhibitor, partial curve]"
14,Cc1ccc(C=C2C(Cl)=C(Cl)C(Cl)=C2Cl)cc1,inactive
15,COc1ccc(OC)c(C2CC(=O)N3CN(c4ccc(C)c(Cl)c4)CSC3=C2C#N)c1 (stereo not given),"inconclusive: 25.1 µM [inhibitor, partial curve]"
16,Cc1ccc(C(=O)Nc2ncc([N+](=O)[O-])s2)cc1,"inconclusive: 15.8 µM [inhibitor, partial curve]"
17,COc1ccc(N)cc1-n1c(C)ccc1C,"inconclusive: 7.08 µM [inhibitor, full curve]"
18,N#Cc1c(N)sc(=S)c2c1CCCC2,inactive
19,Oc1ccc(C2C[C@H]3CC[C@@H]2C3)cc1O (stereo not given in full),active: 14.1 µM
20,c1ccc2c3c(cc(N4CCOCC4)c2c1)OC1(N2CCOCC2)CCCCC1O3 (stereo not given),active: 7.08 µM
21,Cc1ccc(S(=O)(=O)Nc2cc(C)cn(Cc3ccccc3)c2=O)cc1,"inconclusive: 14.1 µM [inhibitor, partial curve]"
22,CCOC(=O)c1cnc(-c2ccccc2O)nc1Cl,"inconclusive: 28.2 µM [inhibitor, partial curve]"
23,Cc1ccc(C(=O)Nc2nnc(S(=O)(=O)N3CCOCC3)s2)cc1,"inconclusive: 14.1 µM [inhibitor, partial curve]"
24,COc1ccc(/C=N/NC2=NS(=O)(=O)c3ccccc32)cc1OC(C)=O,"inconclusive: 39.8 µM [inhibitor, single point]"
25,Cc1cc(C)c(S(=O)(=O)/N=C2/C=C(Sc3ncn[nH]3)C(=O)c3ccccc32)cc1C,active: 6.31 µM
26,COc1cc(CN2CCN(C(=O)CC(C)C)CC2)cc(OC)c1O,active: 3.98 µM
27,O=[N+]([O-])c1cc(F)c2cccnc2c1O,"inconclusive: 15.8 µM [inhibitor, partial curve]"
28,O/N=C/c1ccc2cccc(O)c2n1,active: 2 µM
29,C(=C\CSc1ncn[nH]1)/CSc1ncn[nH]1,inactive
30,CCCn1cnc2c(=S)nc(N)[nH]c21,"inconclusive: 39.8 µM [inhibitor, single point]"

# 2 compounds drawn at random from the list so far:
row,SMILES,Potency
19,Oc1ccc(C2C[C@H]3CC[C@@H]2C3)cc1O (stereo not given in full),active: 14.1 µM
11,COc1ccc(CN2CCN(C(C)C(=O)N(C)Cc3cccc(F)c3)CC2)cc1OC (stereo not given),inactive
